Test results from patent US12084522B2, “Peptides, combination of peptides, and cell based medicaments for use in immunotherapy against urinary bladder cancer and other cancers” (Immatics Biotechnologies GmbH, priority 2016, dated 2024).

Each substance was assayed on primary urinary bladder cancer tissue samples (HLA-A*02-positive) versus panel of normal tissues (assay: Identification and relative quantitation of HLA-presented tumor associated peptides by LC-MS (presentation profiles/scores)). Details: presentation score: over-presentation on urinary bladder cancer tumors compared to a panel of normal tissues, label-free LC-MS.
Parameters: species or system human; key to Peptide Presentation: very highly over-presented on tumors compared to a panel of normal tissues (+++); highly over-presented on tumors compared to a panel of normal tissues (++); over-presented on tumors compared to a panel of normal tissues (+)
“1 (ILLQASVQV; listed as Homo sapiens) [compound 1]” was tested, and the “Peptide Presentation” value was “+++”. “2 (GLLKAYSIRTA; listed as Homo sapiens) [compound 2]” was tested, and the “Peptide Presentation” value was “+++”. “4 (SLDVVNLLV; listed as Homo sapiens) [compound 4]” was tested, and the “Peptide Presentation” value was “+++”. In the case of “7 (QMFEGQILDV; listed as Homo sapiens) [compound 7]”, the “Peptide Presentation” value is reported as “+++”. With “8 (ALSFSSSAGPGLLKA; listed as Homo sapiens) [compound 8]” the “Peptide Presentation” value was “+++”. “9 (SLVDARFQL; listed as Homo sapiens) [compound 9]” was tested, and the “Peptide Presentation” value was “+++”. In the case of “10 (GLWHGMFANV; listed as Homo sapiens) [compound 10]”, the “Peptide Presentation” value is reported as “+++”. “11 (AMAELRVVV; listed as Homo sapiens) [compound 11]” was tested, and the “Peptide Presentation” value was “++”. “12 (GVALTVTGV; listed as Homo sapiens) [compound 12]” was tested, and the “Peptide Presentation” value was “+++”. “13 (FLEEKEQAAL; listed as Homo sapiens) [compound 13]” was tested, and the “Peptide Presentation” value was “+++”. “14 (GLAGPVRGV; listed as Homo sapiens) [compound 14]” was tested, and the “Peptide Presentation” value was “+++”. For “15 (YLAPENGYLMEA; listed as Homo sapiens) [compound 15]”, the “Peptide Presentation” value was “+++”. For “16 (ILGPQGNTI; listed as Homo sapiens) [compound 16]”, the “Peptide Presentation” value was “+++”. In the case of “17 (RLSQLEGVNV; listed as Homo sapiens) [compound 17]”, the “Peptide Presentation” value is reported as “+”. With “18 (SIAAYNPVV; listed as Homo sapiens) [compound 18]” the “Peptide Presentation” value was “+++”. “19 (SLATTLTKI; listed as Homo sapiens) [compound 19]” was tested, and the “Peptide Presentation” value was “+++”. With “20 (YLPDSLTQL; listed as Homo sapiens) [compound 20]” the “Peptide Presentation” value was “+++”. With “23 (YTLSKTEFL; listed as Homo sapiens) [compound 23]” the “Peptide Presentation” value was “+++”. In the case of “24 (SLLGGITVV; listed as Homo sapiens) [compound 24]”, the “Peptide Presentation” value is reported as “++”. “28 (GLIDSLMAYV; listed as Homo sapiens) [compound 28]” was tested, and the “Peptide Presentation” value was “+++”. “30 (ILDISRSEV; listed as Homo sapiens) [compound 30]” was tested, and the “Peptide Presentation” value was “+++”. “31 (SLFDGIATGL; listed as Homo sapiens) [compound 31]” was tested, and the “Peptide Presentation” value was “+++”. For “33 (VLFGEITRL; listed as Homo sapiens) [compound 33]”, the “Peptide Presentation” value was “++”. “34 (ALLDEQQVNV; listed as Homo sapiens) [compound 34]” was tested, and the “Peptide Presentation” value was “++”. With “35 (KLPEPPPLA; listed as Homo sapiens) [compound 35]” the “Peptide Presentation” value was “+++”. With “36 (ALWDEFNQL; listed as Homo sapiens) [compound 36]” the “Peptide Presentation” value was “+++”. “37 (ILSAILVHL; listed as Homo sapiens) [compound 37]” was tested, and the “Peptide Presentation” value was “+++”. In the case of “38 (TLTSIIVAV; listed as Homo sapiens) [compound 38]”, the “Peptide Presentation” value is reported as “+++”. In the case of “40 (VIADRVVTV; listed as Homo sapiens) [compound 40]”, the “Peptide Presentation” value is reported as “+++”. “41 (FLDDGNQMLL; listed as Homo sapiens) [compound 41]” was tested, and the “Peptide Presentation” value was “+++”. With “42 (FLIDASQRV; listed as Homo sapiens) [compound 42]” the “Peptide Presentation” value was “+++”. “43 (FLIESKLLSL; listed as Homo sapiens) [compound 43]” was tested, and the “Peptide Presentation” value was “+++”. With “44 (GLAQDPKSLQL; listed as Homo sapiens) [compound 44]” the “Peptide Presentation” value was “+++”. “45 (IIDSSPTAL; listed as Homo sapiens) [compound 45]” was tested, and the “Peptide Presentation” value was “+++”. For “46 (SLFIGAEIVAV; listed as Homo sapiens) [compound 46]”, the “Peptide Presentation” value was “+++”. In the case of “47 (VLMDDTDPL; listed as Homo sapiens) [compound 47]”, the “Peptide Presentation” value is reported as “+++”. With “48 (VLMDDTDPLV; listed as Homo sapiens) [compound 48]” the “Peptide Presentation” value was “+++”. “49 (SLIGGTNFV; listed as Homo sapiens) [compound 49]” was tested, and the “Peptide Presentation” value was “++”. “50 (VLANRVAVV; listed as Homo sapiens) [compound 50]” was tested, and the “Peptide Presentation” value was “+”. With “51 (ALLDKAQINL; listed as Homo sapiens) [compound 51]” the “Peptide Presentation” value was “++”. With “53 (ILVQVIPVV; listed as Homo sapiens) [compound 53]” the “Peptide Presentation” value was “+++”. “54 (ALNDEINFL; listed as Homo sapiens) [compound 54]” was tested, and the “Peptide Presentation” value was “+++”. For “55 (KLLETKWTL; listed as Homo sapiens) [compound 55]”, the “Peptide Presentation” value was “+”. For “56 (ILLRDLPTL; listed as Homo sapiens) [compound 56]”, the “Peptide Presentation” value was “++”. “57 (GLAHFVNEI; listed as Homo sapiens) [compound 57]” was tested, and the “Peptide Presentation” value was “++”. With “58 (GLDSSVNVQGSVL; listed as Homo sapiens) [compound 58]” the “Peptide Presentation” value was “+++”. In the case of “59 (WLSTSIPEA; listed as Homo sapiens) [compound 59]”, the “Peptide Presentation” value is reported as “++”. In the case of “60 (SLSDVRVIV; listed as Homo sapiens) [compound 60]”, the “Peptide Presentation” value is reported as “++”. With “62 (GQLDFSEFL; listed as Homo sapiens) [compound 62]” the “Peptide Presentation” value was “+”. In the case of “63 (LLAGLLVGV; listed as Homo sapiens) [compound 63]”, the “Peptide Presentation” value is reported as “+++”. “64 (GLLSQGSPL; listed as Homo sapiens) [compound 64]” was tested, and the “Peptide Presentation” value was “+++”. With “65 (IITDLLRSV; listed as Homo sapiens) [compound 65]” the “Peptide Presentation” value was “+++”. For “66 (SLWEENQAL; listed as Homo sapiens) [compound 66]”, the “Peptide Presentation” value was “++”. With “67 (FLTPPLLSV; listed as Homo sapiens) [compound 67]” the “Peptide Presentation” value was “+++”. “68 (TMIVSLAAV; listed as Homo sapiens) [compound 68]” was tested, and the “Peptide Presentation” value was “++”. “69 (QIWDKILSV; listed as Homo sapiens) [compound 69]” was tested, and the “Peptide Presentation” value was “+”. For “70 (KLAEISLGV; listed as Homo sapiens) [compound 70]”, the “Peptide Presentation” value was “+++”. In the case of “73 (VLKVFLENV; listed as Homo sapiens) [compound 73]”, the “Peptide Presentation” value is reported as “++”. With “74 (LLQEGEVYSA; listed as Homo sapiens) [compound 74]” the “Peptide Presentation” value was “+”. “77 (KVFGGFQVV; listed as Homo sapiens) [compound 77]” was tested, and the “Peptide Presentation” value was “++”. In the case of “80 (ILLDTPLFLL; listed as Homo sapiens) [compound 80]”, the “Peptide Presentation” value is reported as “+++”. In the case of “81 (SLDKGTLYI; listed as Homo sapiens) [compound 81]”, the “Peptide Presentation” value is reported as “++”. With “82 (NLHNSYYSV; listed as Homo sapiens) [compound 82]” the “Peptide Presentation” value was “+”. With “83 (VILDKYYFL; listed as Homo sapiens) [compound 83]” the “Peptide Presentation” value was “+”. In the case of “84 (ALDPASISV; listed as Homo sapiens) [compound 84]”, the “Peptide Presentation” value is reported as “+”. “87 (RLLELLQEA; listed as Homo sapiens) [compound 87]” was tested, and the “Peptide Presentation” value was “++”. With “89 (YLFPETEFI; listed as Homo sapiens) [compound 89]” the “Peptide Presentation” value was “+”. With “91 (NLDAATYQV; listed as Homo sapiens) [compound 91]” the “Peptide Presentation” value was “+”. “92 (ALLDEQQVNVLL; listed as Homo sapiens) [compound 92]” was tested, and the “Peptide Presentation” value was “+”. “94 (ALADGVPVAL; listed as Homo sapiens) [compound 94]” was tested, and the “Peptide Presentation” value was “++”. In the case of “96 (KLTNGIWVL; listed as Homo sapiens) [compound 96]”, the “Peptide Presentation” value is reported as “+”. “97 (TVGPGLLGV; listed as Homo sapiens) [compound 97]” was tested, and the “Peptide Presentation” value was “++”. With “98 (YLIGLDPENLAL; listed as Homo sapiens) [compound 98]” the “Peptide Presentation” value was “++”. “99 (ALIGDDVGL; listed as Homo sapiens) [compound 99]” was tested, and the “Peptide Presentation” value was “++”. “100 (SLQSFIHGV; listed as Homo sapiens) [compound 100]” was tested, and the “Peptide Presentation” value was “+”. “102 (GLYEGLDWL; listed as Homo sapiens) [compound 102]” was tested, and the “Peptide Presentation” value was “+++”. In the case of “103 (GLYSGEVLV; listed as Homo sapiens) [compound 103]”, the “Peptide Presentation” value is reported as “+”. In the case of “104 (NAVVELVTV; listed as Homo sapiens) [compound 104]”, the “Peptide Presentation” value is reported as “++”. For “106 (ILLDTPLFL; listed as Homo sapiens) [compound 106]”, the “Peptide Presentation” value was “+”. With “107 (LTLAKLEKV; listed as Homo sapiens) [compound 107]” the “Peptide Presentation” value was “+++”. In the case of “110 (VLFNIDGQGNHV; listed as Homo sapiens) [compound 110]”, the “Peptide Presentation” value is reported as “+++”. With “111 (LLDVTPKAV; listed as Homo sapiens) [compound 111]” the “Peptide Presentation” value was “+++”. In the case of “112 (YLDPSLNSL; listed as Homo sapiens) [compound 112]”, the “Peptide Presentation” value is reported as “+++”. “113 (FVFEPPPGV; listed as Homo sapiens) [compound 113]” was tested, and the “Peptide Presentation” value was “+++”. For “114 (IITKDLFQV; listed as Homo sapiens) [compound 114]”, the “Peptide Presentation” value was “+++”. In the case of “115 (SLLDFERSL; listed as Homo sapiens) [compound 115]”, the “Peptide Presentation” value is reported as “+++”. With “116 (QLAWFDTDL; listed as Homo sapiens) [compound 116]” the “Peptide Presentation” value was “+”. For “117 (YMLDIFHEVL; listed as Homo sapiens) [compound 117]”, the “Peptide Presentation” value was “+++”. In the case of “118 (RLLDFPTLLV; listed as Homo sapiens) [compound 118]”, the “Peptide Presentation” value is reported as “+++”.
